# Results: PubChem BioAssay (Tox21)
# Protein sequences, listed by entry. Tags and fused reporters are not part of them. Lines headed by an entry give the natural chain unless they say otherwise; changes in a name come on top.
# UniProt P28223, whole entry, looked up: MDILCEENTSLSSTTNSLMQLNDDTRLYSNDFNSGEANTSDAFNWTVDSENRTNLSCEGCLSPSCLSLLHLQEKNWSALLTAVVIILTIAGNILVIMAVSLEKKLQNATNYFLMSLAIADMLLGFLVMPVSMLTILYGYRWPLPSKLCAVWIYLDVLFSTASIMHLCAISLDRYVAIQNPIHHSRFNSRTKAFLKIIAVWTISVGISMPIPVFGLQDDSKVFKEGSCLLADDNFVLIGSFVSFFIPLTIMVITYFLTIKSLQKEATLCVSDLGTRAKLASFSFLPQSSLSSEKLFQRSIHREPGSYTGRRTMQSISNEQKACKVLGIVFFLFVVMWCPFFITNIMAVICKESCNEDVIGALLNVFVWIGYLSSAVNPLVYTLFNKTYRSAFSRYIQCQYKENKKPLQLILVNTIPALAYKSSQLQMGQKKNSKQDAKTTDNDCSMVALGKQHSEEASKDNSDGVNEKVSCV
# UniProt P11229: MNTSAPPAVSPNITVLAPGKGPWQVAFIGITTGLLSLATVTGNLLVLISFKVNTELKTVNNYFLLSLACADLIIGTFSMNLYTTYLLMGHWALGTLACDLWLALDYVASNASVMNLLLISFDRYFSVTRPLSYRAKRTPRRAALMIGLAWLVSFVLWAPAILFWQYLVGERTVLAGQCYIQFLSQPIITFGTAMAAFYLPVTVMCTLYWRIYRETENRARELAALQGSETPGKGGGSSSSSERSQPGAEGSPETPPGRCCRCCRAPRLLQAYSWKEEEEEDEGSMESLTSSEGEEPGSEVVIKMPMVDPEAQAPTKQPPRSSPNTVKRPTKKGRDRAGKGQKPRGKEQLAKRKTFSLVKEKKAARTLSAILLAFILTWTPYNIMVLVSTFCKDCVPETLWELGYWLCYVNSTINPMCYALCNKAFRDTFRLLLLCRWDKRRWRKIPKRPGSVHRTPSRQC
# UniProt P14416, whole entry, looked up: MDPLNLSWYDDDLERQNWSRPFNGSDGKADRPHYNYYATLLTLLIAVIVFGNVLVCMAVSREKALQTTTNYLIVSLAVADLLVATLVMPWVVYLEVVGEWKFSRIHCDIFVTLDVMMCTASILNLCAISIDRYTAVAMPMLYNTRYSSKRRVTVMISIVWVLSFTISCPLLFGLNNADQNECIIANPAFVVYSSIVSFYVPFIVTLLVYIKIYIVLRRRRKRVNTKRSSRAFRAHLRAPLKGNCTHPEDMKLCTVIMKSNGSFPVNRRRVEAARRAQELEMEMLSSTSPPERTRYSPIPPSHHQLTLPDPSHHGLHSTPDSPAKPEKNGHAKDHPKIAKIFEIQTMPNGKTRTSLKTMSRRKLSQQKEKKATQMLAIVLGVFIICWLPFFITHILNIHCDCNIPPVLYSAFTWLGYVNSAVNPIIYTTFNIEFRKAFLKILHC
# Values joined by “and” are separate entries in the source; they are usually repeats but may differ in a detail not shown here. Identical values can stand only once. The shares of active, inactive and inconclusive entries below differ from those in the screen. For some of these results: Potencies of inconclusive entries are doubtful fits and often do not repeat. Some compounds were tested as several samples or in several runs, with calls that do not always agree. Active and inactive are the calls of the source. Unless noted, calls follow the shape of the full dose curve.
# Assays:
# [1] = p53 small molecule agonists, cell-based qHTS assay: qHTS cell viability counter screen (AID 1963581); also: nearly all actives have a fitted effect of over 45% in size; also: potency is read from the fitted curve at half-maximal effect
# How it was run: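 Cytotoxicity read-out: ATP-based luminescence (CellTiter-Glo, 30 min RT) measured in the same wells as the p53 reporter assay, HCT-116 p53RE-bla cells, 16 h compound exposure at 37 C.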
# [2] = molecular target: 5-hydroxytryptamine receptor 2A (Homo sapiens) (UniProt P28223); assay: 5-hydroxytryptamine receptor 2A (HTR2A) small molecule antagonists, cell-based qHTS assay (AID 1963586); also: nearly all actives have a fitted effect of over 45% in size; also: potency is read from the fitted curve at half-maximal effect
# How it was run: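 CHO cells stably expressing human HTR2A were plated for 18 h at 37 C, then loaded with calcium dye for 1 h. Compounds were preincubated 5 min at room temperature before DOI (4 nM solution) was added. Kinetic fluorescence was read for 3 min.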
# [3] = cAMP Responsive Elements (CRE) small molecule antagonists, cell-based qHTS assay (AID 1963591; active = well fitted inhibition curve with a large enough effect in the signal ratio in the repeat runs, not every such curve was filed as active; inconclusive = weak or mixed curves, or effect the other way; the % refers to the signal ratio; also: potency is read from the fitted curve at half-maximal effect; as to activity change, negative = inhibition: % is scaled to controls: 0 for no effect and ±100 for the full control effect); settings: CRE-bla HEK293T, beta-lactamase FRET ratio
# How it was run: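 HEK293T CRE-bla; 18 h preincubation; compound pin-transfer; NKH477 0.25 uM final, 3 h, 37 C; LiveBLAzer FRET substrate 2 h RT.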
# [4] = molecular target: Beta-2 adrenergic receptor (Homo sapiens) (UniProt P07550); assay: Adrenergic beta2 receptor (ADRB2) small molecule agonists, cell-based qHTS assay (AID 1963593); settings: CHO-ADRB2 cells, cAMP HTRF, 30 min; activation: at 92.4 µM (top of the series) unless noted; also: potency is read from the fitted curve at half-maximal effect;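 as to activation: CHO cells stably overexpressing human ADRB2; % is scaled to controls: 0 for no effect and ±100 for the full control effect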
# How it was run: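 CHO cells stably over-expressing ADRB2 were plated overnight at 37C, then dosed with compounds plus a stimulation mix containing 100uM IBMX and 25uM Ro-20-1724 for 0.5hr at room temperature. cAMP was measured by HTRF competition, 1hr.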
# [5] = cAMP Responsive Elements (CRE) small molecule agonists, cell-based qHTS assay (AID 1963590); settings: CRE-bla HEK293T, beta-lactamase FRET ratio, 3 h; activation: at 92.4 µM (top of the series) unless noted; also: potency is read from the fitted curve at half-maximal effect; as to activation: % is scaled to controls: 0 for no effect and ±100 for the full control effect
# How it was run: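 Beta-lactamase reporter readout: LiveBLAzer B/G FRET substrate, 2 h at room temperature, added after 3 h compound treatment of CRE-bla HEK 293T cells at 37 C/5% CO2.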
# [6] = molecular target: Muscarinic acetylcholine receptor M1 (Homo sapiens) (UniProt P11229); assay: Cholinergic receptor muscarinic 1 (CHRM1) small molecule antagonists, cell-based qHTS assay (AID 1963588); also: potency is read from the fitted curve at half-maximal effect; nearly all actives have a fitted effect of over 40% in size
# How it was run: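 Compounds were tested at 15 concentrations in three independent runs. Dye-loaded CHRM1-CHO cells were exposed 5 min at room temperature before stimulation by acetylcholine added at 50nM. Intracellular calcium was read kinetically on FDSS for 3 min.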
# [7] = molecular target: Beta-2 adrenergic receptor (Homo sapiens) (UniProt P07550); assay: Adrenergic beta2 receptor (ADRB2) small molecule antagonists, cell-based qHTS assay (AID 1963592); settings: CHO-ADRB2 cells, isoproterenol-stimulated cAMP HTRF ratio, 0.5 h; activity change, negative = inhibition: at 92.4 µM (top of the series) unless noted; also: nearly all actives have a fitted effect of over 50% in size; also: potency is read from the fitted curve at half-maximal effect
# How it was run: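 Assay format: CHO-ADRB2 cells, 18-20hr seeding at 37C/5% CO2, then compound plus 1nM isoproterenol agonist mix for 0.5hr RT. Homogeneous time-resolved fluorescence cAMP detection after 1hr, expressed as 665/615 nm ratio.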
# [8] = molecular target: D(2) dopamine receptor (Homo sapiens) (UniProt P14416); assay: Dopamine D2 receptor (DRD2) small molecule agonists, cell-based qHTS assay (AID 1963594); settings: HEK293-DRD2 cAMP HTRF, agonist mode, 30 min; activation: at 92.4 µM (top of the series) unless noted; also: % is scaled to controls: 0 for no effect and ±100 for the full control effect; nearly all actives have a fitted effect of over 35% in size
# How it was run: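 HEK293 cells stably expressing DRD2 were cultured 24 h at 37 C, then given Ro20-1724 (0.1 mM final) and compounds for 10 min at room temperature. NKH477 (200nM) was then added for 30 min. cAMP was read by HTRF.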
# [9] = molecular target: D(2) dopamine receptor (Homo sapiens) (UniProt P14416); assay: Dopamine D2 receptor (DRD2) small molecule antagonists, cell-based qHTS assay (AID 1963595; active = well fitted inhibition curve with a large enough effect in the signal ratio in the repeat runs, with a control signal flat; inconclusive = weak or mixed curves, or effect the other way; the % refers to the signal ratio; also: potency is read from the fitted curve at half-maximal effect); settings: HEK293-DRD2 cAMP HTRF antagonist mode; activity change, negative = inhibition: at 92.4 µM (top of the series) unless noted
# How it was run: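 HTRF cAMP read-out at 665 and 620 nm emission (340 nm excitation). Antagonist mode: compounds were tested against 12 nM quinpirole in DRD2-HEK293 cells, with 200 nM NKH477 raising cAMP and 0.1 mM Ro20-1724 blocking its breakdown.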
# [10] = molecular target: Muscarinic acetylcholine receptor M1 (Homo sapiens) (UniProt P11229); assay: Cholinergic receptor muscarinic 1 (CHRM1) small molecule agonists, cell-based qHTS assay (AID 1963589); also: nearly all actives have a fitted effect of over 35% in size; also: potency is read from the fitted curve at half-maximal effect; as to activation: % is scaled to controls: 0 for no effect and ±100 for the full control effect
# How it was run: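 Calcium flux read-out: kinetic fluorescence at 1 sec intervals after pin-tool compound addition to dye-loaded CHRM1-CHO cells (human M1). Agonist mode; 15 concentrations tested in triplicate independent runs.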
# [11] = activity change, negative = inhibition: at 92.4 µM (top of the series) unless noted
smiles,measurement,setting,value
CC(CCl)OC(C)CCl (stereo not given),Potency,[1],"inconclusive: 1.77 µM [cytotoxic, single point]"
same,Potency,[2],"inconclusive: 2.58 µM [inhibitor, partial curve, poor fit]"
same,"activity change, negative = inhibition",[3]; [11],inconclusive: 1.48%
same,activation,[4],inconclusive: 10.8%
Cc1ccc(Cl)c(OCC(O)CNC(C)(C)C)c1 (stereo not given),Potency,[1],"inconclusive: 2.51 µM [rising, full curve]"
same,Potency,[2],"inconclusive: 16.3 µM [inhibitor, partial curve, poor fit]"
same,Potency,[5],inactive
CCn1cc(C(=O)O)c(=O)c2ccc(C)nc21,Potency,[1],"inconclusive: 18.2 µM [rising, single point]"
same,Potency,[2],active: 3.34 µM
same,Potency,[6],"inconclusive: 0.133 µM [inhibitor, single point]"
same,Potency,[5],"inconclusive: 3.06 µM [rising, full curve] and inconclusive: 4.33 µM [rising, full curve] and inconclusive: 8.41 µM [rising, full curve]"
same,Potency,[3]; [11],"inconclusive: 0.0051 µM [activator, full curve, poor fit]"
same,"activity change, negative = inhibition",[3]; at 42.4 µM (top of the series),inconclusive: 0.438%
same,"activity change, negative = inhibition",[3]; at 92.4 µM (top of the series),inconclusive: -1.05%
same,Potency,[4],inactive
O=c1[nH]cccc1O,Potency,[1],"inconclusive: 3.63 µM [rising, partial curve, poor fit]"
same,Potency,[2],inactive
same,Potency,[3]; [11],inactive
same,activation,[4],inconclusive: 19%
CN1CCN(C2=Nc3cc(F)ccc3Cc3ccccc32)CC1,Potency,[1],"inconclusive: 5 µM [rising, full curve]"
same,Potency,[2],active: 0.0231 µM
same,Potency,[6],"inconclusive: 0.0052 µM [inhibitor, full curve]"
same,Potency,[3]; [11],inactive
same,Potency,[7],active: 29.8 µM
same,Potency,[4],"inconclusive: 33.5 µM [inhibitor, single point]"
same,activation,[8],inconclusive: 25.7% [at 42.5 µM]
c1ccc2ccccc2c1,Potency,[1],inactive
same,Potency,[2],"inconclusive: 0.119 µM [inhibitor, partial curve, poor fit]"
same,activation,[4],inconclusive: -9.37% and inconclusive: 2.69%
CC1OC(=O)C(C)OC1=O (stereo not given),Potency,[1],"inconclusive: 51.3 µM [rising, single point]"
same,Potency,[5],inactive
CC[C@H](NC(C)C)[C@H](O)c1ccc(O)c2[nH]c(=O)ccc12,Potency,[1],inactive
same,Potency,[5],"inconclusive: 0.0042 µM [activator, full curve]"
same,"activity change, negative = inhibition",[3]; [11],inconclusive: 6.48% [at 42.4 µM]
same,Potency,[7],"inconclusive: 0.006 µM [activator, full curve]"
same,Potency,[4],active: 0.0017 µM
same,Potency,[9],active: 0.0944 µM
Nc1c(Cl)cc(Cl)cc1Cl,Potency,[1],inactive
same,Potency,[6],"inconclusive: 9.28 µM [inhibitor, single point]"
same,Potency,[10],active: 8.58 µM
same,Potency,[4],inactive
CC(C)(C)c1ccc(C(O)CCCN2CCC(C(O)(c3ccccc3)c3ccccc3)CC2)cc1 (stereo not given),Potency,[1],"inconclusive: 22.3 µM [cytotoxic, single point]"
same,Potency,[5],"inconclusive: 13.3 µM [rising, single point]"
same,Potency,[3]; [11],inactive
Fc1ccccc1,Potency,[1],"inconclusive: 20.6 µM [cytotoxic, single point]"
same,Potency,[10],inactive
same,Potency,[4],inactive
CC(=O)SCc1ccco1,Potency,[1],inactive
same,Potency,[6],"inconclusive: 1.68 µM [inhibitor, single point]"
same,Potency,[3]; [11],inactive
same,Potency,[4],"inconclusive: 1.93 µM [activator, partial curve, poor fit]"
Cc1nc(C)nc(N2C[C@@H](C)N(c3ccnc([C@@H](C)O)n3)[C@@H](C)C2)n1,Potency,[1],inactive
same,Potency,[6],"inconclusive: 20.5 µM [inhibitor, single point]"
same,Potency,[5],"inconclusive: 29.8 µM [rising, partial curve]"
same,"activity change, negative = inhibition",[3]; [11],inconclusive: 11.3% [at 42.4 µM]
same,activation,[4],inconclusive: 10.1% [at 42.5 µM]
CC(=O)OCC(C)C,Potency,[1],"inconclusive: 50.2 µM [cytotoxic, single point]"
same,Potency,[6],"inconclusive: 0.013 µM [inhibitor, full curve, poor fit]"
same,Potency,[4],inactive
CN1CCN(Cc2cc(-c3ccc4[nH]c(=O)oc4c3)co2)[C@@H](c2ccc(F)cc2)C1,Potency,[1],"inconclusive: 24.8 µM [rising, partial curve, poor fit]"
same,Potency,[6],"inconclusive: 22.8 µM [inhibitor, partial curve, poor fit]"
same,Potency,[5],"inconclusive: 26.3 µM [activator, partial curve]"
same,Potency,[3]; [11],"inconclusive: 46.7 µM [activator, partial curve, poor fit]"
same,activation,[8],inconclusive: -20.6%
same,Potency,[9],inconclusive: 58.8 µM [inhibitor]
